# Measurements from paper PMC10224958, “Cryo-EM structure of the Saccharomyces cerevisiae Rpd3L histone deacetylase complex” (Nature Communications, 2023).
# Results are given in words; binding and its absence hold for the method and conditions named. Binding seen in cells or lysates may run through a third protein. A yes stands for co-enrichment or nearness to the bait. Other partners may have been found. Where a sequence is shown, tags or fusion partners need not be part of it.
# T1: Rxt2 with a TAP tag at the C-terminus (S. cerevisiae) (UniProt P38255)
# T1 sequence: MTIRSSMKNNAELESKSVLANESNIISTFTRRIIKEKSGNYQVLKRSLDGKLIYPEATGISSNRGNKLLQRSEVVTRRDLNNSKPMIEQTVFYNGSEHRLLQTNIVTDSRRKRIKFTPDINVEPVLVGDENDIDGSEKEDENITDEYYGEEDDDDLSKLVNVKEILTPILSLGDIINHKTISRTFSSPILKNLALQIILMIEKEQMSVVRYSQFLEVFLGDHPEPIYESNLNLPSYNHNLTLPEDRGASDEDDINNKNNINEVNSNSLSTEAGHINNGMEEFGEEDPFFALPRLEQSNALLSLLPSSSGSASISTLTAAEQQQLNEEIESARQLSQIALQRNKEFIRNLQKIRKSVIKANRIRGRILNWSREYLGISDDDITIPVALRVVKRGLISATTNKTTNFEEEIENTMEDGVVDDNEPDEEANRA
# Target: T1, Rxt2 with a TAP tag at the C-terminus (S. cerevisiae)
# Assay: affinity purification with mass spectrometry; tandem affinity purification from S. cerevisiae lysate by the TAP tag on Rxt2 (IgG resin, TEV protease, calmodulin resin; washes with 500 to 750 mM KCl); the purified complex analysed by mass spectrometry
row,binding,Binder
1,binds,"Ash1 (protein, UniProt P34233 1-588) MSSLYIKTPLHALSAGPDSHANSSYYDNLLLPSFSNLSSNISRNNITTDNNINSASPRKYSFHSLNVSPILSPISLANEILGKKSNTAPASPHHMDYNPISSLTPGNSPEFNKASLSQISFTNPLNYGSGLGFSSNSQPRLPLLDRLSSVSLSKRPERPQQSLPSLRHLQLLPSPLLQENAARFPDTSKRTSNWKTDLTHWCKDTNYQDYVKIREEVAHFKPLSIPNLTNNQNNDSFNYGKELESTRSSKFHSPSKESFDRTKLIPSILEAKDQFKDLSNNAWSITPPVTPPMSPPTNRTMERTTLRGVEASFFEGKSSNNDSIFNPIISEKLVQEVKHQRQLRGNSFPMPNASHKKTNSFKALQIKKLLANRDILSNNSKSNVRKPSKNKISKQASNVFGNTARQLVMKLDNASYSSVSASSSPSPSTPTKSGKMRSRSSSPVRPKAYTPSPRSPNYHRFALDSPPQSPRRSSNSSITKKGSRRSSGSSPTRHTTRVCVSCHSSDSPCWRPSWSPRKQDQLCNSCGLRYKKTHTRCLNDLCRKIPTKGEINIMKSNGIDKEFVPERNCEIEGYRCLFCNYITETVEN"
2,binds,"Rxt3 (natural protein, S. cerevisiae, UniProt Q07458 1-294, looked up, Rxt3, subunit of the S. cerevisiae Rpd3L complex; endogenous subunit) MSVSEQDPNRAYRETQSQIYKLQETLLNSARTKNKQEEGQESNTHSFPEQYMHYQNGRNSAYDLPNVSSQSVLAFTEKHYPNKLKNLGTLYYNRFKEGSFDEDSTSYSDRHSFPYNLYDNTLPPPFLPAIGIQNINNIATLKITYEDIQASFNNIESPRKRNNEIWGCDIYSDDSDPILVLRHCGFKIGAPSGGSFHKLRRTPVNVTNQDNVTGNLPLLEGTPFDLEVELLFLPTLQKYPSVKRFDITSREWGSEATVIHDGLSYGIYSIVIKQRLDRDKPHEPNGYIKNLKWT"
3,binds,"Ume6 (protein, UniProt P39001 1-836) MLDKARSQSKHMDESNAAASLLSMETTANNHHYLHNKTSRATLMNSSQDGKKHAEDEVSDGANSRHPTISSASIESLKTTYDENPLLSIMKSTCAPNNTPVHTPSGSPSLKVQSGGDIKDDPKENDTTTTTNTTLQDRRDSDNAVHAAASPLAPSNTPSDPKSLCNGHVAQATDPQISGAIQPQYTATNEDVFPYSSTSTNSNTATTTIVAGAKKKIHLPPPQAPAVSSPGTTAAGSGAGTGSGIRSRTGSDLPLIITSANKNNGKTTNSPMSILSRNNSTNNNDNNSIQSSDSRESSNNNEIGGYLRGGTKRGGSPSNDSQVQHNVHDDQCAVGVAPRNFYFNKDREITDPNVKLDENESKINISFWLNSKYRDEAYSLNESSSNNASSNTDTPTNSRHANTSSSITSRNNFQHFRFNQIPSQPPTSASSFTSTNNNNPQRNNINRGEDPFATSSRPSTGFFYGDLPNRNNRNSPFHTNEQYIPPPPPKYINSKLDGLRSRLLLGPNSASSSTKLDDDLGTAAAVLSNMRSSPYRTHDKPISNVNDMNNTNALGVPASRPHSSSFPSKGVLRPILLRIHNSEQQPIFESNNSTAVFDEDQDQNQDLSPYHLNLNSKKVLDPTFESRTRQVTWNKNGKRIDRRLSAPEQQQQLEVPPLKKSRRSVGNARVASQTNSDYNSLGESSTSSAPSSPSLKASSGLAYTADYPNATSPDFAKSKGKNVKPKAKSKAKQSSKKRPNNTTSKSKANNSQESNNATSSTSQGTRSRTGCWICRLRKKKCTEERPHCFNCERLKLDCHYDAFKPDFVSDPKKKQMKLEEIKKKTKEAKRRAMKKK"
4,binds,"Dep1 (natural protein, S. cerevisiae, UniProt P31385 1-405, looked up, Dep1, subunit of the S. cerevisiae Rpd3L complex; endogenous subunit) MSQQTPQESEQTTAKEQDLDQESVLSNIDFNTDLNHNLNLSEYCISSDAGTEKMDSDEEKSLANLPELKYAPKLSSLVKQETLTESLKRPHEDEKEAIDEAKKMKVPGENEDESKEEEKSQELEEAIDSKEKSTDARDEQGDEGDNEEENNEEDNENENEHTAPPALVMPSPIEMEEQRMTALKEITDIEYKFAQLRQKLYDNQLVRLQTELQMCLEGSHPELQVYYSKIAAIRDYKLHRAYQRQKYELSCINTETIATRTFIHQDFHKKVTDLRARLLNRTTQTWYDINKERRDMDIVIPDVNYHVPIKLDNKTLSCITGYASAAQLCYPGEPVAEDLACESIEYRYRANPVDKLEVIVDRMRLNNEISDLEGLRKYFHSFPGAPELNPLRDSEINDDFHQWAQ"
5,binds,"Sap30 (natural protein, S. cerevisiae, UniProt P38429 1-201, looked up, Sap30, subunit of the S. cerevisiae Rpd3L complex; endogenous subunit) MARPVNTNAETESRGRPTQGGGYASNNNGSCNNNNGSNNNNNNNNNNNNNSNNSNNNNGPTSSGRTNGKQRLTAAQQQYIKNLIETHITDNHPDLRPKSHPMDFEEYTDAFLRRYKDHFQLDVPDNLTLQGYLLGSKLGAKTYSYKRNTQGQHDKRIHKRDLANVVRRHFDEHSIKETDCIPQFIYKVKNQKKKFKMEFRG"
6,binds,"Cti6 (protein, UniProt Q08923 1-506) MESTAIVPKGPVVGSEDMEKAEVIASGSTDIISTTSTATTTAAIGSVQEESVKQEDVPMEGGEGEVEEEEGETRCICGELDTPDDSGFFIQCEQCSSWQHGYCVSITQDNAPDKYWCEQCRPELHQLFTTDTGEARSIYKPVQEKRRQSRRKARSAAASKSHAANEAEKSPRNTSNTDDNVDDIGDEEDEVEDEASAVALAKDGNTRSSRRRRRNSMDDASTDQYSLDPGDSDKKLLDRKRATFMAREEKQYQRMLEKALKESRRTSHQEDPESYENDADIYQGDTDNHNGTTRLQTDVMLTEGKPDSVTNDDMKESLRPSKEQSMEKTNDVEKEASQEKESSTGSAQDTEKTDEPILPLTSISSSEDDSRKASSRGSKRVSKPARKGNRTRRSNTSSDTNQNRRSADIGTDKPVKPRLPPQRTSLNEMRRRVSAILEFISRTQWELSEDQSDREEFVRFVENQHFVEKVDTIYNGYNESLSMMDDLTRELLLWEKKYSNNTNAIQ"
7,binds,"Sds3 (natural protein, S. cerevisiae, UniProt P40505 1-327, looked up, Sds3, subunit of the S. cerevisiae Rpd3L complex; endogenous subunit) MAIQKVSNKDLSRKDKRRFNIESKVNKIYQNFYSERDNQYKDRLTALQTDLTSLHQGDNGQYARQVRDLEEERDLELVRLRLFEEYRVSRSGIEFQEDIEKAKAEHEKLIKLCKERLYSSIEQKIKKLQEERLLMDVANVHSYAMNYSRPQYQKNTRSHTVSGWDSSSNEYGRDTANESATDTGAGNDRRTLRRRNASKDTRGNNNNQDESDFQTGNGSGSNGHGSRQGSQFPHFNNLTYKSGMNSDSDFLQGINEGTDLYAFLFGEKNPKDNANGNEKKKNRGAQRYSTKTAPPLQSLKPDEVTEDISLIRELTGQPPAPFRLRSD"
8,binds,"Ume1 (protein, UniProt Q03010 1-460) MSTLDIAEDNKIKNEEFKIWKKSIPSLYQHISSLKPIFGSGVDESPSTLRSIVFTNDSSCNKSKGVLSVPLLYSQGSEIFEVDCIVPLGLHYKKPESISEPLVQPDYTMESQKVEQTVLIPKWEFKGETIAKMIYVDNSEINVKVIALSTNGSLAWFREGVKSPVYTMMEPSTSLSSASSGNQNKPCVDFAISNDSKTLTVTKEKHLDNENATIKLIDNSGKIGEVLRTIPVPGIKNIQEIKFLNNQIFATCSDDGIIRFWGNEIGKKPLWILNDSLDGKTTCFAASPFVDTLFMTGTSGGALKVWDIRAVIALGDADAELNINQGHNKVNELFKVHHFYSEQVSKIEFSSISPMEVVTIGGLGNVYHWNFEPVFAIYNEIHEDFQGIISDELEAESMAFYHTEGCRREIGENNKVNTVAYHKYIEDLVATVDSDGLLTVYKPFTGKVLDGSREVGAAKS"
